Measured values: US20050009739A1, “Formulation strategies in stabilizing peptides in organic solvents and in dried states” (priority 2002, published 2005)
Not every detail of the peptide structures is certain; ends, links or a residue may be inferred. For some of these results: The name of at least one read-out is uncertain. Ends that are not written are not given here.

Tests used:
[1] = Stability of acidified, lyophilized PACAP 66 in DMSO at 40° C.; assay type: physicochemical
Experimental: Several acid solutions were prepared at 0.1%, including HCl, trifluoro acetic acid (TFA), and H3PO4 and cooled to 2-8° C. The cold acid solutions were then mixed with PACAP 66 at a PACAP 66:acid molar ratio of 1:10. After mixing, the cold PACAP 66 solutions were immediately placed inside a precooled freeze-drier and were lyophilized. The lyophilized material was further equilibrated in a desiccator containing P2O5 for at least one day to absorb additional moisture from the lyophilized peptide. The acidified and dried material was then dissolved in DMSO at 2 mg/mL and stability was conducted as described in the upper section.
The recovery of HCl-acidified PACAP 66 at the end of a 2-week period was 97% by RP-HPLC. However, the recovery could be slightly overestimated, as the corresponding purity of PACAP 66 in the sample was only 89% by RP-HPLC.
We understand that peptides can be hydrolyzed readily under acidic conditions in an aqueous solution. […] In the acidification of PACAP 66, the pH of acidified PACAP 66 solution was measured to be 2.2 after addition of TFA. At this pH, PACAP 66 should be rapidly hydrolyzed.

[2] = Stability of PACAP 66 solution at 20 mg/mL in 1-methyl-2-pyrrolinidone at 40° C.; assay type: physicochemical; conditions: 9 weeks; for peptide remained: acidified (HCl)
Excerpt: To test whether a metal salt would stabilize PACAP 66 at a high peptide concentration in an organic solvent, a high concentration of a metal salt would be required, assuming a fixed ratio of metal and peptide is needed for stabilization. A metal salt, however, has limited solubility in an organic solvent Therefore, a similar preparation method was adopted for sample preparation of peptide-metal mixtures at high concentrations, as described under Acidification and Lyophilization of PACAP 66, supra. Briefly, a metal salt and the peptide were first dissolved at a fixed molar ratio in an aqueous solution. The solution was then aliquoted in 3-mL glass vials at a fixed volume and lyophilized. Stability samples were prepared by adding a fixed amount of an organic solvent in the vial. The sample vials were then capped, sealed, and incubated at 40° C. Stability samples were first diluted to a reasonable concentration before analysis by RP-HPLC or CE. Similarly, a peptide suspension was prepared by mixing a proper amount of an organic solvent in a sample vial containing the lyophilized mixture and incubated at 40° C. Stability of solid PACAP 66 was evaluated directly by incubating the sample vial containing the lyophilized mixture at 40° C.
PACAP 66 in the sample was acidified in the absence and presence of ZnCl2.

[3] = HCl-acidified, lyophilized PACAP 66, DMSO, 40° C., end of 2-week period

With “HSDAVFTDNYTRLRKQVAAKKYLQSIKNKRY [PACAP 66]” the “purity by RP-HPLC” value [1, 3] was 89%, the “recovery by RP-HPLC” value [1, 3] was 97% and the hydrolysis during acidification ([1]; acidification at low temperature followed by immediate lyophilization) was “no detectable hydrolysis”. For the same sequence, the “pH of acidified PACAP 66 solution” value ([1]; aqueous solution after addition of TFA, PACAP 66:acid 1:10) was 2.2, the peptide remained ([2]; absence of ZnCl2) was “more than 80%” and the peptide remained ([2]; presence of ZnCl2) was “more than 80%”. For the same sequence, the “peptide level after storage” value ([2]; control sample) was “degraded to a non-detectable level”.
